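Luciferase-expressing Plasmodium falciparum parasites grown in red blood cells, with parasite growth read as luminescence after a 48-hour exposure.
Compounds were tested as a dilution series from about 0.0018 to 29 µM.
The number is the fitted AC50 potency; lower values indicate a more potent effect.
Calls follow curve class and fitted AC50: a score of 40–100 counts as active, 1–39 as inconclusive, and 0 as inactive.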

Values are in nM.
Every entry below has the call inconclusive.
Only part of the assay is shown, chiefly results filed as inconclusive.
Potencies fitted to partial, single-point or poorly fitting curves are rough.
The first word of each remark tells which way the curve ran; it can be opposite to the aim of the assay.
Activity scores are not listed here.

| # | Compound | potency (nM) | curve as filed |
|---|---|---|---|
| 1 | `Oc1ccc2c3c1O[C@H]1[C@@H](O)CC[C@@]4(O)C(C2)N(CC2CCC2)CCC314` (stereo partly drawn) | 4148 | activator, single point |
| 2 | `CN1C[C@@H](CS(=O)(=O)N(C)C)C[C@@H]2c3cccc4c3c(cn4C)C[C@H]21` | 18525 | inhibitor, single point |
| 3 | `CN(C)CCC=C1c2ccccc2C=Cc2ccccc21` | 18525 | inhibitor, single point |
| 4 | `C[C@H](Cc1ccccc1)Nc1ncnc2c1ncn2[C@@H]1O[C@H](CO)[C@H](O)[C@H]1O` | 9.3 | activator, full curve, poor fit |
| 5 | `COc1ccc2c(c1)/C(=C/c1cnc[nH]1)C(=O)N2` | 16511 | inhibitor, single point |
| 6 | `Fc1ccc(CN(C2=NCCN2)c2c(Cl)cccc2Cl)cc1` | 11689 | inhibitor, single point |
| 7 | `CC[C@H](NC(=O)c1c(C)c(-c2ccccc2)nc2ccccc12)c1ccccc1` | 18525 | inhibitor, single point |
| 8 | `COc1cc([C@@H]2c3cc4c(cc3[C@H](O)C3COC(=O)[C@@H]32)OCO4)cc(OC)c1OC` (stereo partly drawn) | 18525 | inhibitor, single point |
| 9 | `CCn1cc(C(=O)O)c(=O)c2cc3c(cc21)OCO3` | 16.5 | activator, full curve, poor fit |
| 10 | `CC(C)C[C@H](N)CSSC[C@@H](N)CC(C)C` | 20786 | inhibitor, single point |
| 11 | `CCCN(CCC)C1CCc2ccc(O)cc2C1` (stereo not drawn) | 11689 | inhibitor, single point |
| 12 | `S=C(S)N1CCCC1` | 11689 | inhibitor, single point |
| 13 | `CN1CCN(CC/C=C2/c3ccccc3Sc3ccc(S(=O)(=O)N(C)C)cc32)CC1` | 18525 | activator, single point |
| 14 | `CCCCC#Cc1nc(N)c2ncn([C@@H]3O[C@H](C(=O)NCC)[C@@H](O)[C@H]3O)c2n1` | 9285 | inhibitor, single point |
| 15 | `C[C@@H](NC(=O)/C(C#N)=C/c1ccc(O)c(O)c1)c1ccccc1` | 13115 | inhibitor, partial curve, poor fit |
| 16 | `Nc1nc(Cl)nc2c1ncn2[C@@H]1O[C@H](CO)[C@H](O)[C@H]1O` | 11689 | inhibitor, single point |
| 17 | `CN1C2CCC1CC(OC(=O)c1c[nH]c3ccccc13)C2` (stereo not drawn) | 18525 | inhibitor, single point |
| 18 | `CN1CCN(C2=Nc3cc(Cl)ccc3Nc3ccccc32)CC1` | 18525 | inhibitor, single point |
| 19 | `COC(=O)C1=C(C)NC(C)=C(C(=O)OC)C1c1ccccc1[N+](=O)[O-]` | 18525 | inhibitor, single point |
| 20 | `CCCC(C(=O)OCCN(CC)CC)(c1ccccc1)c1ccccc1` | 16511 | inhibitor, single point |
| 21 | `Cc1ccc(OCC(O)C(C)NC(C)C)c2c1CCC2` (stereo not drawn) | 8275 | inhibitor, single point |
| 22 | `Cc1c(OCC(F)(F)F)ccnc1CS(=O)c1nc2ccccc2[nH]1` (stereo not drawn) | 3696 | activator, partial curve |
| 23 | `Oc1ccc(C2CNCCc3c2cc(O)c(O)c3Cl)cc1` (stereo not drawn) | 18525 | inhibitor, single point |
| 24 | `CN1CCc2cc(Cl)c(O)cc2C(c2ccccc2)C1` (stereo not drawn) | 18525 | inhibitor, single point |
| 25 | `COc1ccc2c(c1)c(CC(=O)O)c(C)n2Cc1ccc(Cl)cc1` | 18525 | inhibitor, single point |
| 26 | `CC[N+](C)(C)Cc1ccccc1Br` | 11689 | inhibitor, single point |
| 27 | `NC(N)=NC(=O)c1nc(Cl)c(N2CCCCCC2)nc1N` | 13115 | inhibitor, single point |
| 28 | `NC(N)=NC(=O)Cc1c(Cl)cccc1Cl` | 7375 | inhibitor, partial curve |
| 29 | `CN1CCN(C2=Nc3ccccc3Oc3ccc(Cl)cc32)CC1` | 11689 | inhibitor, single point |
| 30 | `Nc1nc(N)c2nc(-c3ccccc3)c(N)nc2n1` | 18525 | inhibitor, single point |
| 31 | `Clc1ccc(C(c2ccc(Cl)cc2)n2cc[n+](CC(OCc3ccc(Cl)cc3Cl)c3ccc(Cl)cc3Cl)c2)cc1` (stereo not drawn) | 10417 | inhibitor, single point |
| 32 | `CC(C)(C)[C@]1(O)CCN2CC3c4ccccc4CCc4cccc(c43)[C@@H]2C1` (stereo partly drawn) | 11689 | inhibitor, single point |
| 33 | `C[C@@](Cc1ccc(O)c(O)c1)(NN)C(=O)O` | 18525 | inhibitor, single point |
| 34 | `CNc1ncnc2c1ncn2[C@@H]1O[C@H](CO)[C@H](O)[C@H]1O` | 10417 | inhibitor, single point |
| 35 | `CN(C)C(=O)Oc1cccc([N+](C)(C)C)c1` | 5221 | inhibitor, partial curve |
| 36 | `CCCCC1C(=O)N(c2ccccc2)N(c2ccccc2)C1=O` | 18525 | inhibitor, single point |
| 37 | `Oc1cc2c(cc1O)[C@H]1c3ccccc3CNC1CC2` (stereo partly drawn) | 18525 | inhibitor, single point |
| 38 | `c1ccc(CN2CCC3(CCCc4ccccc43)CC2)cc1` | 737.5 | activator, full curve, poor fit |
| 39 | `Oc1cc2c(cc1O)CN(C(=S)NCCc1ccc(Cl)cc1)CCC2` | 18525 | inhibitor, single point |
| 40 | `N[C@@H](Cc1ccc(F)cc1)C(=O)O` | 18525 | inhibitor, single point |
| 41 | `C[N+]1(C)CCOC(O)(c2ccc(-c3ccc(C4(O)C[N+](C)(C)CCO4)cc3)cc2)C1` (stereo not drawn) | 11689 | activator, single point |

From PubChem BioAssay record AID488752 (NCATS, 2010).